PubChem BioAssay AID1259308 | NCATS – 2017
Purpose: 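Genes whose loss raises luciferase production in HEK293 cells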 (primary screen). Cells: human HEK293 embryonic kidney cells stably expressing firefly luciferase (HEK-CMV-Luc2-Hygro). Knock-down reagent: single siRNA against human genes, 0.8 pmol siRNA per well. Time to read-out: 72 h. Measurement: 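Reporter luminescence and viable-cell signal on separate replicate plates, given as percent of non-targeting control and median/MAD z-scores, plus per-cell luciferase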. Direction: total luciferase, z-score: higher = more reporter protein produced. Active means: 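Active when the median/MAD z-score for overall luciferase is greater than 3; a gene was taken forward for validation with new siRNAs if at least two of its three siRNAs passed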. Calls: active = raised luciferase; inactive = no rise.
Here is an unselected part of about 59,000 reagents. About 1,510 of all reagents (2.6%) were called active. 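Calls use total luciferase alone and ignore viability, so some active siRNAs may act by altering cell number.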 Entries without a mark were called inactive. Reagents against one gene are numbered here. Further read-outs or replicates are left out here.

total luciferase, z-score, by target and reagent
CCDC87: #1 1.42; #2 1.44; #3 -1.98
SMTNL2: #1 2.11; #2 0.932; #3 -0.0221
OTULINL: #1 -1.32; #2 0.377; #3 -0.845
COLEC11: #1 2.48; #2 2.19; #3 0.232
ZNF764: #1 0.225; #2 -0.0241; #3 -1.11
CYB561D2: #1 -1.12; #2 3.08 (active); #3 -0.858
PSMD8: #1 -0.33; #2 1.25; #3 1.29
ZSWIM7: #1 1.04; #2 0.228; #3 -1.18
LINC02714: #1 -0.76; #2 0.127; #3 0.83
GDPGP1: #1 -0.261; #2 0.706; #3 0.812
FNDC1: #1 -0.944; #2 0.651; #3 0.959
ZFYVE19: #1 -0.293; #2 2.28; #3 1.32
RAB1B: #1 1.05; #2 0.234; #3 6.75 (active)
ZBBX: #1 -1.52; #2 -0.193; #3 0.0818
NPPB: #1 0.551; #2 -0.287; #3 0.119
CUL2: #1 -0.444; #2 0.0607; #3 1.2
CSRNP2: #1 1.01; #2 0.4; #3 0.708
C1orf185: #1 0.741; #2 -0.691; #3 -0.084
CNTN3: #1 -1.12; #2 0.216; #3 -0.55

Reprinted from the entries so far, 7 entries:
total luciferase, z-score, by target and reagent
ZFYVE19: #2 2.28; #3 1.32
RAB1B: #1 1.05; #2 0.234; #3 6.75 (active)
ZBBX: #1 -1.52; #2 -0.193
